The test system of data set [1] is cytochrome c. As to the kind of experiment: confocal microscopy of GFP-tagged AuNR-aptamer on MMP-Ab. The following applies: fluorescence only when cyto-c present, GFP on nanorod; 5'-biotin-TEG; MMP-Ab blocking/wash buffer 10 mM HEPES, 75 mM NaCl, 5 mM MgCl2, 1 mM CaCl2, pH 7.4 (wash + 0.1% Tween-20, then water); cyto-c in PBS, 10% serum or RPMI-1640 + 20% FBS; commercial protein; label: biotin, bound to streptavidin-PEG-gold nanorod; single-stranded DNA.

Data set [2] relates to cytochrome c. Nature of the data set: AuNR-LSPR sandwich assay (aggregation ratio 760/630 nm). The conditions noted are these: cyto-c 0-100 ng/mL on MMP-antibody, LOD 0.1 ng/mL (not a Kd); 5'-biotin-TEG; MMP-Ab blocking/wash buffer 10 mM HEPES, 75 mM NaCl, 5 mM MgCl2, 1 mM CaCl2, pH 7.4 (wash + 0.1% Tween-20, then water); cyto-c in PBS, 10% serum or RPMI-1640 + 20% FBS; commercial protein; label: biotin, bound to streptavidin-PEG-gold nanorod; single-stranded DNA.

For at least one entry, the source does not settle the construct or the ends of the probe.

As for “ATCGATAAGCTTCCAGAGCCGTGTCTGGGGCCGACCGGCGCATTGGGTACGTTGTTGCCGTAGAATTCCTGCAGCC [76-mer cyto-c aptamer]”, the binding result with cytochrome c [1] and in the data set on cytochrome c [2] was “binds” throughout.
